In PubChem BioAssay AID1347076 (National Center for Advancing Translational Sciences (NCATS), 2019):
The campaign covered roughly 400,000 compounds. About 13,000 (3.2%) were called active. Inconclusive results, whose numbers are uncertain, are shown with a selection of clear calls. Calls come from the whole dose curve; as a rule, active = well fitted cell-killing curve with a large enough effect; inconclusive = small, poorly fitted or top-dose-only effect, or effect the other way; inactive = flat fitted curve, though single readings scatter. Where the call is inconclusive, the potency comes from a doubtful curve fit.

test: qHTS assay for MDR1-selective chemotherapeutics: Primary screen using the drug-selected MDR subline cells KB-V1; settings: KB-V1 MDR cells viability, CellTiter-Glo, 72 h; series mostly up to 46.1 µM; note: nearly all actives have a fitted effect of over 60% in size
Procedure, shortened: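 Compound-treated KB-V1 multidrug-resistant cells, 72 h, 37 degrees C; viability by CellTiter-Glo. Fitted qHTS curves give the values.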
Potency is the fitted concentration of half-maximal effect.

With `O=C(Cc1ccc(Cl)cc1)N/N=C1\CCCc2ccccc21` as the compound, how does the Potency read?
The Potency was inconclusive: 13 µM [cytotoxic, partial curve, poor fit].

Which Potency does the source give for `COCCn1c(CN(C)Cc2ccccc2)nc2c1c(=O)n(C)c(=O)n2C` here?
The Potency was inconclusive: 29.1 µM [cytotoxic, single point].

Which Potency does the source give for `COc1ccc(-c2cc(C(F)(F)F)nc(SCCC(=O)Nc3cccc(OC)c3)n2)cc1` here?
The Potency was inconclusive: 20.6 µM [cytotoxic, single point].

For `O=c1c2c3c(sc2ncn1-n1cccc1)CCCCC3`, which Potency is on record?
Its Potency is inconclusive: 29.1 µM [cytotoxic, single point].

For `O=S(=O)([N-]c1nc2ccccc2nc1-n1cc[n+](Cc2ccccc2)c1)c1ccccc1`, which Potency is on record?
Its Potency is “inactive”.

For `CCC1CCCCN1CCCNC(=O)c1ccc2c(c1)NC(=O)CN2C` (stereo not given), which Potency is on record?
The Potency was inconclusive: 29.1 µM [rising, single point].

With `O=S(=O)(Nc1cc2nc3ccccc3nc2n1Cc1ccccc1)c1ccc(Cl)cc1` as the compound, how does the Potency read?
Its Potency is “inactive”.

Which Potency does the source give for `CCCCCCCNC(=O)C1(CC2CC(c3ccc(Cl)cc3)=NO2)CCN(C(=O)c2cc(OCC)c(OCC)c(OCC)c2)CC1` (stereo not given) here?
The Potency was “inactive”.

Which Potency does the source give for `O=C(O)[C@H](Cc1ccccc1)NC(=O)N1CCN(c2cccc(C(F)(F)F)c2)CC1` here?
The Potency was “inactive”.

With `Cc1ccc(CNc2ncccc2-c2nc(-c3ccc(Cl)cc3)no2)cc1` as the compound, how does the Potency read?
Its Potency is “inactive”.

Which Potency does the source give for `CN1CCCC1CCOC(C)(c1ccccc1)c1ccc(Cl)cc1` (stereo not given) here?
Its Potency is inconclusive: 18.4 µM [cytotoxic, partial curve].

With `C=CCc1cc(Cl)ccc1OCCCn1ccnc1` as the compound, how does the Potency read?
Its Potency is inconclusive: 32.6 µM [cytotoxic, single point].

For `COc1cccc(C2=Cc3ccc(F)cc3C(CC(C)=O)N2c2ccc(C#CC3(O)CCCCC3)cc2)c1` (stereo not given), which Potency is on record?
The Potency was inconclusive: 29.1 µM [cytotoxic, single point].

Which Potency does the source give for `COc1cc(/C=C2\SC(=N)N(c3ccc4c(c3)OCO4)C2=O)cc(OC)c1O` here?
Its Potency is “inactive”.

Which Potency does the source give for `Cc1ccc(C(=O)Nc2ccccc2N2CCCCC2)cc1[N+](=O)[O-]` here?
Its Potency is inconclusive: 16.4 µM [cytotoxic, single point].

Which Potency does the source give for `O=C(CNC(=O)c1ccco1)Nc1ccc(S(=O)(=O)N2CCCC2)cc1` here?
The Potency was “inactive”.

With `COc1ccc2cc(C(=O)Nc3ccc(Cl)cc3)sc(=O)c2c1OC` as the compound, how does the Potency read?
The Potency was “inactive”.

Which Potency does the source give for `COc1ccccc1CC(=O)NCc1csc(-c2cccs2)n1` here?
Its Potency is inconclusive: 18.4 µM [cytotoxic, single point].

With `Cc1nc(N2CCc3ccccc3C2)[nH]c(=O)c1CCC(C)C` as the compound, how does the Potency read?
The Potency was “inactive”.

With `O=C(N/N=C/c1cn(-c2ccccc2)nc1-c1cccnc1)c1ccc(F)cc1` as the compound, how does the Potency read?
Its Potency is “inactive”.

Which Potency does the source give for `COC(=O)c1cccc(C(=O)N2CCCC(C(=O)c3ccccc3OC)C2)c1` (stereo not given) here?
The Potency was inconclusive: 11.6 µM [cytotoxic, partial curve, poor fit].

For `CCCCNc1c2c3c(cccc3n(C)c1=O)C(=O)c1ccccc1-2`, which Potency is on record?
The Potency was inconclusive: 16.4 µM [cytotoxic, partial curve, poor fit].

Which Potency does the source give for `CCOc1ccc(/C=N/n2cnnc2)cc1` here?
The Potency was inconclusive: 16.4 µM [cytotoxic, partial curve].

With `O=C(Cn1c(COc2ccc(Cl)cc2)nc2ccccc21)NCC(F)(F)F` as the compound, how does the Potency read?
Its Potency is “inactive”.

For `COc1ccc(-c2csc(NC(=O)c3ccoc3C)n2)cc1`, which Potency is on record?
Its Potency is inconclusive: 9.2 µM [cytotoxic, partial curve].

Which Potency does the source give for `O=C1c2ccccc2C(=Cc2cccnc2)c2ccccc21` here?
Its Potency is “inactive”.

Which Potency does the source give for `NNc1nc2c(F)cccc2s1` here?
The Potency was inconclusive: 29.1 µM [cytotoxic, single point].

For `CCOC(=O)c1ccc(NC(=O)C23CCC(C)(C(=O)O2)C3(C)C)cc1` (stereo not given), which Potency is on record?
Its Potency is inconclusive: 16.4 µM [cytotoxic, partial curve, poor fit].

Which Potency does the source give for `N#Cc1ccc(NC(=O)Nc2ccc(Cl)cc2)cc1` here?
The Potency was inconclusive: 29.1 µM [cytotoxic, single point].

With `CCOc1ccc(-c2cc(C(=O)N3CCN(S(=O)(=O)c4cc(Cl)ccc4OC)CC3)[nH]n2)cc1` as the compound, how does the Potency read?
Its Potency is inconclusive: 20.6 µM [cytotoxic, single point].

Which Potency does the source give for `C#CCOCCOCCOCCNc1nc(N2CCN(C(=O)Cn3cc(CCCN=C(N)N)nn3)CC2)nc(N2CCN(C(=O)[C@H](C)n3cc(CCCN=C(N)N)nn3)CC2)n1` here?
Its Potency is inconclusive: 29.1 µM [rising, single point].

Which Potency does the source give for `COc1ccc(CSCCc2n[nH]c(=S)n2-c2ccccc2)cc1` here?
The Potency was inconclusive: 20.6 µM [cytotoxic, single point].

For `COc1ccc(N2C(=O)CC2(/C=C/c2ccccc2OC)C(=O)NC2CCCC2)cc1` (stereo not given), which Potency is on record?
The Potency was active: 3.66 µM.

For `Cc1nc2ccc(C(=O)Nc3ccc4nc[nH]c4c3)cc2[nH]1`, which Potency is on record?
Its Potency is “inactive”.

With `COc1nc(C)ccc1-c1noc(-c2ccccn2)n1` as the compound, how does the Potency read?
The Potency was active: 11.6 µM.

With `CCOC(=O)c1ccccc1NC(=O)c1ccc2c(=O)n3c(nc2c1)CCCCC3` as the compound, how does the Potency read?
The Potency was inconclusive: 29.1 µM [cytotoxic, single point].

For `CCOc1ncccc1C(=O)Nc1ccc2c(c1)OCO2`, which Potency is on record?
Its Potency is inconclusive: 18.4 µM [cytotoxic, single point].

With `COC(=O)c1ccccc1NC(=O)CN1CCc2ccccc2C1` as the compound, how does the Potency read?
The Potency was inconclusive: 29.1 µM [cytotoxic, single point].

With `Cc1ccc2cc(C3CC(c4ccco4)=NN3C(=O)CCC(=O)O)c(Cl)nc2c1` (stereo not given) as the compound, how does the Potency read?
Its Potency is “inactive”.

For `Cc1ccc(CN2CCN(Cc3cc(=O)c4ccccc4[nH]3)CC2CCO)o1` (stereo not given), which Potency is on record?
Its Potency is inconclusive: 29.1 µM [rising, single point].

With `COC(=O)c1ccc(NC(=O)c2ccc3c(c2)C(=O)N(Cc2cccnc2)C3=O)cc1` as the compound, how does the Potency read?
The Potency was inconclusive: 6.51 µM [rising, full curve].

Which Potency does the source give for `Cc1ccc(C(c2nnnn2CS(=O)(=O)c2ccc(C)cc2)N2CCC(C)CC2)cc1` (stereo not given) here?
Its Potency is inconclusive: 4.11 µM [cytotoxic, full curve].

Which Potency does the source give for `O=[N+]([O-])c1ccc2c([N+](=O)[O-])ccc3c2c1CC3` here?
Its Potency is inconclusive: 18.4 µM [rising, partial curve, poor fit].

With `C=CCn1c(SCC(=O)Nc2c(C)n(C)n(-c3ccccc3)c2=O)nc2ccccc2c1=O` as the compound, how does the Potency read?
The Potency was “inactive”.

For `COc1ccccc1N1CCN(C(=O)c2ccc3[nH]c(C)c(C)c3c2)CC1`, which Potency is on record?
The Potency was active: 4.61 µM.
